{"source": "the supplement of paper PMC8728848", "test_in_all_cases": "glycan array binding signal (z-score within array); higher = stronger binding", "details_in_all_cases": "glycan notation: IUPAC condensed, linker removed", "key": {"Kdn(a2-3)Gal(b1-3)GlcNAc": {"target": "Kdn(a2-3)Gal(b1-3)GlcNAc", "in_short": "(§1)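 The binding signal is a Z-score computed within each array. Data were drawn from 3228 arrays in the Consortium for Functional Glycomics database, restricted to those with a known protein sequence. Scores were averaged over arrays of the same protein sequence at different concentrations or buffers, and over linkers, and negative values can be taken as non-binding.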"}, "Kdn(a2-3)Gal(b1-4)Glc": {"target": "Kdn(a2-3)Gal(b1-4)Glc", "in_short": "as §1"}, "Kdn(a2-3)Gal(b1-4)GlcNAc": {"target": "Kdn(a2-3)Gal(b1-4)GlcNAc", "in_short": "as §1"}, "[1]": {"target": "Kdn(a2-3)Gal(b1-4)[Fuc(a1-3)]GlcNAc", "in_short": "as §1"}, "Kdn(a2-6)Gal(b1-4)GlcNAc": {"target": "Kdn(a2-6)Gal(b1-4)GlcNAc", "in_short": "as §1"}, "[2]": {"target": "Man(a1-2)Man(a1-2)Man(a1-3)Man", "in_short": "as §1"}, "[3]": {"target": "Man(a1-2)Man(a1-2)Man(a1-6)[Man(a1-3)]Man", "in_short": "as §1"}, "Man(a1-2)Man(a1-3)Man": {"target": "Man(a1-2)Man(a1-3)Man", "in_short": "as §1"}, "[4]": {"target": "Man(a1-2)Man(a1-3)[Man(a1-2)Man(a1-6)]Man", "in_short": "as §1"}, "[5]": {"target": "Man(a1-2)Man(a1-3)[Man(a1-2)Man(a1-6)]Man(a1-6)[Man(a1-2)Man(a1-2)Man(a1-3)]Man", "in_short": "as §1"}, "[6]": {"target": "Man(a1-2)Man(a1-3)[Man(a1-2)Man(a1-6)]Man(a1-6)[Man(a1-2)Man(a1-2)Man(a1-3)]Man(b1-4)GlcNAc(b1-4)GlcNAc", "in_short": "as §1"}, "[7]": {"target": "Man(a1-2)Man(a1-3)[Man(a1-6)]Man(a1-6)[Man(a1-2)Man(a1-3)]Man(b1-4)GlcNAc(b1-4)GlcNAc", "in_short": "as §1"}, "[8]": {"target": "Man(a1-2)Man(a1-6)[Man(a1-3)]Man(a1-6)[Man(a1-2)Man(a1-2)Man(a1-3)]Man", "in_short": "as §1"}, "[9]": {"target": "Man(a1-2)Man(a1-6)[Man(a1-3)]Man(a1-6)[Man(a1-2)Man(a1-2)Man(a1-3)]Man(b1-4)GlcNAc(b1-4)GlcNAc", "in_short": "as §1"}, "Man(a1-3)[Man(a1-6)]Man": {"target": "Man(a1-3)[Man(a1-6)]Man", "in_short": "as §1"}, "[10]": {"target": "Man(a1-3)[Man(a1-6)]Man(a1-6)[Man(a1-2)Man(a1-3)]Man(b1-4)GlcNAc(b1-4)GlcNAc", "in_short": "as §1"}, "[11]": {"target": "Man(a1-3)[Man(a1-6)]Man(a1-6)[Man(a1-3)]Man", "in_short": "as §1"}, "[12]": {"target": "Man(a1-3)[Man(a1-6)]Man(a1-6)[Man(a1-3)]Man(b1-4)GlcNAc(b1-4)GlcNAc", "in_short": "as §1"}, "[13]": {"target": "Man(a1-3)[Man(a1-6)]Man(b1-4)GlcNAc(b1-4)GlcNAc", "in_short": "as §1"}, "[14]": {"target": "Man(a1-3)[Man(a1-6)]Man(b1-4)GlcNAc(b1-4)[Fuc(a1-6)]GlcNAc", "in_short": "as §1"}, "Man(a1-6)Man": {"target": "Man(a1-6)Man", "in_short": "as §1"}, "Man(b1-4)GlcNAc": {"target": "Man(b1-4)GlcNAc", "in_short": "as §1"}, "MurNAc(b1-4)GlcNAc": {"target": "MurNAc(b1-4)GlcNAc", "in_short": "as §1"}, "Neu5Ac(a2-3)Gal": {"target": "Neu5Ac(a2-3)Gal", "in_short": "as §1"}, "[15]": {"target": "Neu5Ac(a2-3)Gal(b1-3)GalNAc", "in_short": "as §1"}, "[16]": {"target": "Neu5Ac(a2-3)Gal(b1-3)GalNAc(b1-3)Gal(a1-4)Gal(b1-4)Glc", "in_short": "as §1"}, "[17]": {"target": "Neu5Ac(a2-3)Gal(b1-3)GalNAc(b1-4)Gal(b1-4)Glc", "in_short": "as §1"}, "[18]": {"target": "Neu5Ac(a2-3)Gal(b1-3)GalNAc(b1-4)[Neu5Ac(a2-3)]Gal(b1-4)Glc", "in_short": "as §1"}, "[19]": {"target": "Neu5Ac(a2-3)Gal(b1-3)GalNAc(b1-4)[Neu5Ac(a2-8)Neu5Ac(a2-3)]Gal(b1-4)Glc", "in_short": "as §1"}, "[20]": {"target": "Neu5Ac(a2-3)Gal(b1-3)GalNAc6S", "in_short": "as §1"}, "[21]": {"target": "Neu5Ac(a2-3)Gal(b1-3)GlcNAc", "in_short": "as §1"}, "[22]": {"target": "Neu5Ac(a2-3)Gal(b1-3)GlcNAc(b1-2)Man", "in_short": "as §1"}, "[23]": {"target": "Neu5Ac(a2-3)Gal(b1-3)GlcNAc(b1-2)Man(a1-3)[GlcNAc(b1-4)][Neu5Ac(a2-3)Gal(b1-3)GlcNAc(b1-2)Man(a1-6)]Man(b1-4)GlcNAc(b1-4)GlcNAc", "in_short": "as §1"}, "[24]": {"target": "Neu5Ac(a2-3)Gal(b1-3)GlcNAc(b1-2)Man(a1-3)[Neu5Ac(a2-3)Gal(b1-3)GlcNAc(b1-2)Man(a1-6)]Man(b1-4)GlcNAc(b1-4)GlcNAc", "in_short": "as §1"}, "[25]": {"target": "Neu5Ac(a2-3)Gal(b1-3)GlcNAc(b1-2)[Neu5Ac(a2-3)Gal(b1-3)GlcNAc(b1-4)]Man(a1-6)[Neu5Ac(a2-3)Gal(b1-3)GlcNAc(b1-2)Man(a1-3)]Man(b1-4)GlcNAc(b1-4)GlcNAc", "in_short": "as §1"}, "[26]": {"target": "Neu5Ac(a2-3)Gal(b1-3)GlcNAc(b1-3)Gal(b1-3)GlcNAc", "in_short": "as §1"}, "[27]": {"target": "Neu5Ac(a2-3)Gal(b1-3)GlcNAc(b1-3)Gal(b1-4)GlcNAc", "in_short": "as §1"}, "[28]": {"target": "Neu5Ac(a2-3)Gal(b1-3)GlcNAc(b1-3)GalNAc", "in_short": "as §1"}}, "note": "The list shows a part of the results."}
{"binder": "RsaA-N-term (Caulobacter crescentus), P35828 (protein) MAYTTAQLVTAYTNANLGKAPDAATTLTLDAYATQTQTGGLSDAAALTNTLKLVNSTTAVAIQTYQFFTGVAPSAAGLDFLVDSTTNTNDLNDAYYSKFAQENRFINFSINLATGAGAGATAFAAAYTGVSYAQTVATAYDKIIGNAVATAAGVDVAAAVAFLSRQANIDYLTAFVRANTPFTAAADIDLAVKAALIGTILNAATVSGIGGYATATAAMINDLSDGALSTDNAAGVNLFTAYPSSGVSGSTLSLTTGTDTLTGTANNDTFVAGEVAGDGSGWSHPQFEKGG", "values": [{"measurement": "glycan array binding signal (z-score)", "setting": "Kdn(a2-3)Gal(b1-3)GlcNAc", "result": -0.837}, {"measurement": "glycan array binding signal (z-score)", "setting": "Kdn(a2-3)Gal(b1-4)Glc", "result": -1.28}, {"measurement": "glycan array binding signal (z-score)", "setting": "Kdn(a2-3)Gal(b1-4)GlcNAc", "result": -0.437}, {"measurement": "glycan array binding signal (z-score)", "setting": "[1]", "result": 0.029}, {"measurement": "glycan array binding signal (z-score)", "setting": "Kdn(a2-6)Gal(b1-4)GlcNAc", "result": -0.047}, {"measurement": "glycan array binding signal (z-score)", "setting": "[2]", "result": 1.44}, {"measurement": "glycan array binding signal (z-score)", "setting": "[3]", "result": -0.515}, {"measurement": "glycan array binding signal (z-score)", "setting": "Man(a1-2)Man(a1-3)Man", "result": -0.706}, {"measurement": "glycan array binding signal (z-score)", "setting": "[4]", "result": -0.209}, {"measurement": "glycan array binding signal (z-score)", "setting": "[5]", "result": -0.494}, {"measurement": "glycan array binding signal (z-score)", "setting": "[6]", "result": -0.244}, {"measurement": "glycan array binding signal (z-score)", "setting": "[7]", "result": -0.886}, {"measurement": "glycan array binding signal (z-score)", "setting": "[8]", "result": -0.583}, {"measurement": "glycan array binding signal (z-score)", "setting": "[9]", "result": 1.66}, {"measurement": "glycan array binding signal (z-score)", "setting": "Man(a1-3)[Man(a1-6)]Man", "result": 2.01}, {"measurement": "glycan array binding signal (z-score)", "setting": "[10]", "result": 1.32}, {"measurement": "glycan array binding signal (z-score)", "setting": "[11]", "result": 0.507}, {"measurement": "glycan array binding signal (z-score)", "setting": "[12]", "result": -0.766}, {"measurement": "glycan array binding signal (z-score)", "setting": "[13]", "result": 0.174}, {"measurement": "glycan array binding signal (z-score)", "setting": "[14]", "result": 0.545}, {"measurement": "glycan array binding signal (z-score)", "setting": "Man(a1-6)Man", "result": -1.01}, {"measurement": "glycan array binding signal (z-score)", "setting": "Man(b1-4)GlcNAc", "result": -0.454}, {"measurement": "glycan array binding signal (z-score)", "setting": "MurNAc(b1-4)GlcNAc", "result": -0.701}, {"measurement": "glycan array binding signal (z-score)", "setting": "Neu5Ac(a2-3)Gal", "result": -0.241}, {"measurement": "glycan array binding signal (z-score)", "setting": "[15]", "result": 0.562}, {"measurement": "glycan array binding signal (z-score)", "setting": "[16]", "result": -0.592}, {"measurement": "glycan array binding signal (z-score)", "setting": "[17]", "result": -1.34}, {"measurement": "glycan array binding signal (z-score)", "setting": "[18]", "result": -1.29}, {"measurement": "glycan array binding signal (z-score)", "setting": "[19]", "result": -0.481}, {"measurement": "glycan array binding signal (z-score)", "setting": "[20]", "result": 0.427}, {"measurement": "glycan array binding signal (z-score)", "setting": "[21]", "result": 0.45}, {"measurement": "glycan array binding signal (z-score)", "setting": "[22]", "result": -0.377}, {"measurement": "glycan array binding signal (z-score)", "setting": "[23]", "result": -0.59}, {"measurement": "glycan array binding signal (z-score)", "setting": "[24]", "result": 7.19}, {"measurement": "glycan array binding signal (z-score)", "setting": "[25]", "result": 0.029}, {"measurement": "glycan array binding signal (z-score)", "setting": "[26]", "result": -0.798}, {"measurement": "glycan array binding signal (z-score)", "setting": "[27]", "result": 0.761}, {"measurement": "glycan array binding signal (z-score)", "setting": "[28]", "result": 0.063}]}
